For 15 targets, NP40-soluble protein abundance results are on record in the supplement of paper PMC6411743.

Protein sequences, listed by entry. Tags and fused reporters are not part of them. Lines headed by an entry give the natural chain unless they say otherwise; changes in a name come on top.
UniProt Q6P1N0: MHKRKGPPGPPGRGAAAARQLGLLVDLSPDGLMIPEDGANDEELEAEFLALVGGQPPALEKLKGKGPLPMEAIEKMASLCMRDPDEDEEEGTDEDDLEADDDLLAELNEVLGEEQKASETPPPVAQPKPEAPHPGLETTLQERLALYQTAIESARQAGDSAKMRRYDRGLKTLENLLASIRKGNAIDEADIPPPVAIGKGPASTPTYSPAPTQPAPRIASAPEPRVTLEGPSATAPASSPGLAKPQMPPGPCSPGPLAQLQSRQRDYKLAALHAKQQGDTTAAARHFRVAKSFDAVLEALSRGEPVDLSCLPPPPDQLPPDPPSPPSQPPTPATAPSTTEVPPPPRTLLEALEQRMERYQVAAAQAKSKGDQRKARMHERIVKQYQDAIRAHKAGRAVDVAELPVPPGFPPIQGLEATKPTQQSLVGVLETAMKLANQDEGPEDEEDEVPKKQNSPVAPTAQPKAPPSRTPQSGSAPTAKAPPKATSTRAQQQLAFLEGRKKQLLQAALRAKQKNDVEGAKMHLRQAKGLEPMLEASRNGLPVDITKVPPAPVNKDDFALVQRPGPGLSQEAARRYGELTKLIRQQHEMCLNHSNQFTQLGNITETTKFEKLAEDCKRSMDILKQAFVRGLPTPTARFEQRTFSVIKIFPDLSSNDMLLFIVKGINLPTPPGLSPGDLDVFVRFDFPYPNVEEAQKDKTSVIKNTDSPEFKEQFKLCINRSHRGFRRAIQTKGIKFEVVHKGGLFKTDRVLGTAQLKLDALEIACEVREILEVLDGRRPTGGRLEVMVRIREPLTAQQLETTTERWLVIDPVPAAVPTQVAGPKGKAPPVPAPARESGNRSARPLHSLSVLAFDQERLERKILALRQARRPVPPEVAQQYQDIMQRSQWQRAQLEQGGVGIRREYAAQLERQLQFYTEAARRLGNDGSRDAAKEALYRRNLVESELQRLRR
UniProt Q6N069: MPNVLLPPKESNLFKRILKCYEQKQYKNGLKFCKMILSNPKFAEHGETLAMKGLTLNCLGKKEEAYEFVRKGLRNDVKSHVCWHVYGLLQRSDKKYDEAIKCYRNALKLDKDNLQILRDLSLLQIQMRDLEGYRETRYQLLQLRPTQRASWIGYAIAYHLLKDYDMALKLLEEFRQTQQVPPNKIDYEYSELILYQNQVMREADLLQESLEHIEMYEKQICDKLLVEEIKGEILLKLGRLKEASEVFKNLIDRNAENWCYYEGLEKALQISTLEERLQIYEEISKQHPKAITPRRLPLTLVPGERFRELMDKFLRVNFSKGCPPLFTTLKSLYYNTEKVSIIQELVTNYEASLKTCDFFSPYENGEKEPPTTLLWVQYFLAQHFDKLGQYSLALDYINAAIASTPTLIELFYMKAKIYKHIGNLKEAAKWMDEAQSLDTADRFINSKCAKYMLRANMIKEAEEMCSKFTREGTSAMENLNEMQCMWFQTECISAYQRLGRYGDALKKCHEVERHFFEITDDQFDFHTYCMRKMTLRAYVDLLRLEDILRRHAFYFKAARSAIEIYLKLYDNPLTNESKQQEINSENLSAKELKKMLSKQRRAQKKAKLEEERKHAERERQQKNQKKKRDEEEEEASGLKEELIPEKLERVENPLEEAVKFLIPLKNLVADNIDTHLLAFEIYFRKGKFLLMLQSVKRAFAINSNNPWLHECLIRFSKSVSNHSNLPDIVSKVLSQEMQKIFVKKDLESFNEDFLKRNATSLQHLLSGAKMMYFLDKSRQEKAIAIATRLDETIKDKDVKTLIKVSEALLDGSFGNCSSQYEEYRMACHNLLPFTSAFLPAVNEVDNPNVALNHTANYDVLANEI
UniProt Q4KMP7: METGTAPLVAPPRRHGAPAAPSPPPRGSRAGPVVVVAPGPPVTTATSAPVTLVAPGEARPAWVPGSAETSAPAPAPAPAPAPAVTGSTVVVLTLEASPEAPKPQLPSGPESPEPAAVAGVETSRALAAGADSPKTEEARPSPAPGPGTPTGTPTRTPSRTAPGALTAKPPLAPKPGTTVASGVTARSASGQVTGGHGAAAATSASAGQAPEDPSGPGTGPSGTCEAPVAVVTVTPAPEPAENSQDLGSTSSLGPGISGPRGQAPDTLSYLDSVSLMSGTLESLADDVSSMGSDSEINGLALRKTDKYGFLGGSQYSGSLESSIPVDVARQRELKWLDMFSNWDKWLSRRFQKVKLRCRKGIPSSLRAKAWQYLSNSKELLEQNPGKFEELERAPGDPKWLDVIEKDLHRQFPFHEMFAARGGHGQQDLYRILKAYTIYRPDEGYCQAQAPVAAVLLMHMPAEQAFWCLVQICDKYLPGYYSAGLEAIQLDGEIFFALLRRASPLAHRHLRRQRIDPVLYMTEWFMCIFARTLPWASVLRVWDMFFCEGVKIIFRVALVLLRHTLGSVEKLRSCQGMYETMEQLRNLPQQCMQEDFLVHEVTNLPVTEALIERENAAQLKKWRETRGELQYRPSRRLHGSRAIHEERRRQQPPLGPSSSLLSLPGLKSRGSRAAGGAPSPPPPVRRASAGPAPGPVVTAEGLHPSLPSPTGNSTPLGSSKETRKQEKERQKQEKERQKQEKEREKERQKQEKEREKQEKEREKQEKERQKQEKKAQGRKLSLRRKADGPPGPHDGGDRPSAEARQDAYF
UniProt Q5JPI3: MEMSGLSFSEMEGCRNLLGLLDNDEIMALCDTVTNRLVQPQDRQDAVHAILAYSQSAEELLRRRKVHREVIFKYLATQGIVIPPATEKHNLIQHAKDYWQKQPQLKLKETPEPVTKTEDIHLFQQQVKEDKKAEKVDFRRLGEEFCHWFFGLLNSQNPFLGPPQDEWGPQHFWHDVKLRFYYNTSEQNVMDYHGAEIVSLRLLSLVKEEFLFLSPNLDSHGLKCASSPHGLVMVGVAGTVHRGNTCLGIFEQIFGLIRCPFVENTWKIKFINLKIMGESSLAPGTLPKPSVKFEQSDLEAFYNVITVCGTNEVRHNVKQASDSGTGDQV
UniProt Q6P499: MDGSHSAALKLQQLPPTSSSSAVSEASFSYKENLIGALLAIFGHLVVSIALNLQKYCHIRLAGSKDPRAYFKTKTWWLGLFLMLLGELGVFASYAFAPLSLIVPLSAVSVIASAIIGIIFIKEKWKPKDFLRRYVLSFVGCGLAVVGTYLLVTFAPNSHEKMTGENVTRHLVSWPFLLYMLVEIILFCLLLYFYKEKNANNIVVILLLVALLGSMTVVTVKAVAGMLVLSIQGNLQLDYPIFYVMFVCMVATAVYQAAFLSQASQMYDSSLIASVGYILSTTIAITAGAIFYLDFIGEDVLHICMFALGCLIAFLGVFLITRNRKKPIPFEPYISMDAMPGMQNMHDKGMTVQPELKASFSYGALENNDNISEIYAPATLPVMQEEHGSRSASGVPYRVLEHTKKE
UniProt Q6GQQ9: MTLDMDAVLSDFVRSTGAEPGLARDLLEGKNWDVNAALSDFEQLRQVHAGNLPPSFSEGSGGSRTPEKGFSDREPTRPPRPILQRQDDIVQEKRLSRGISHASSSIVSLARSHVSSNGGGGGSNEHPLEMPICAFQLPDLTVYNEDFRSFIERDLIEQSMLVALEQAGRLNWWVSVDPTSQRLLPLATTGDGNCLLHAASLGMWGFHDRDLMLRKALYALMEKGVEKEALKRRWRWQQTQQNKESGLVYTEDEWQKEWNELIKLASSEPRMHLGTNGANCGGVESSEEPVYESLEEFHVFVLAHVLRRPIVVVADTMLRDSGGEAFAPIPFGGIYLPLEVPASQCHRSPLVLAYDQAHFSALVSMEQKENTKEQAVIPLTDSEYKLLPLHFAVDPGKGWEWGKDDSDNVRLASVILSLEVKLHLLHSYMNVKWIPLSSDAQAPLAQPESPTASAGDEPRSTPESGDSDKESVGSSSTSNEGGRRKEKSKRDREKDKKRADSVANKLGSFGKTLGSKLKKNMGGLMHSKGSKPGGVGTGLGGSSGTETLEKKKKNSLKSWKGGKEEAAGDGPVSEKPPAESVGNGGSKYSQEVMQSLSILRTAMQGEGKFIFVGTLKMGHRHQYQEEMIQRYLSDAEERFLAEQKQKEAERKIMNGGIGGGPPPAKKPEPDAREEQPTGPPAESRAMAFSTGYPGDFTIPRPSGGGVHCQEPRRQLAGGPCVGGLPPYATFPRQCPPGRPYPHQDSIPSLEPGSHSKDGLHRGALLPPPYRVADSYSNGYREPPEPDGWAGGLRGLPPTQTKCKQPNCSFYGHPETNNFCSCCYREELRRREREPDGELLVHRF
UniProt Q6GYQ0: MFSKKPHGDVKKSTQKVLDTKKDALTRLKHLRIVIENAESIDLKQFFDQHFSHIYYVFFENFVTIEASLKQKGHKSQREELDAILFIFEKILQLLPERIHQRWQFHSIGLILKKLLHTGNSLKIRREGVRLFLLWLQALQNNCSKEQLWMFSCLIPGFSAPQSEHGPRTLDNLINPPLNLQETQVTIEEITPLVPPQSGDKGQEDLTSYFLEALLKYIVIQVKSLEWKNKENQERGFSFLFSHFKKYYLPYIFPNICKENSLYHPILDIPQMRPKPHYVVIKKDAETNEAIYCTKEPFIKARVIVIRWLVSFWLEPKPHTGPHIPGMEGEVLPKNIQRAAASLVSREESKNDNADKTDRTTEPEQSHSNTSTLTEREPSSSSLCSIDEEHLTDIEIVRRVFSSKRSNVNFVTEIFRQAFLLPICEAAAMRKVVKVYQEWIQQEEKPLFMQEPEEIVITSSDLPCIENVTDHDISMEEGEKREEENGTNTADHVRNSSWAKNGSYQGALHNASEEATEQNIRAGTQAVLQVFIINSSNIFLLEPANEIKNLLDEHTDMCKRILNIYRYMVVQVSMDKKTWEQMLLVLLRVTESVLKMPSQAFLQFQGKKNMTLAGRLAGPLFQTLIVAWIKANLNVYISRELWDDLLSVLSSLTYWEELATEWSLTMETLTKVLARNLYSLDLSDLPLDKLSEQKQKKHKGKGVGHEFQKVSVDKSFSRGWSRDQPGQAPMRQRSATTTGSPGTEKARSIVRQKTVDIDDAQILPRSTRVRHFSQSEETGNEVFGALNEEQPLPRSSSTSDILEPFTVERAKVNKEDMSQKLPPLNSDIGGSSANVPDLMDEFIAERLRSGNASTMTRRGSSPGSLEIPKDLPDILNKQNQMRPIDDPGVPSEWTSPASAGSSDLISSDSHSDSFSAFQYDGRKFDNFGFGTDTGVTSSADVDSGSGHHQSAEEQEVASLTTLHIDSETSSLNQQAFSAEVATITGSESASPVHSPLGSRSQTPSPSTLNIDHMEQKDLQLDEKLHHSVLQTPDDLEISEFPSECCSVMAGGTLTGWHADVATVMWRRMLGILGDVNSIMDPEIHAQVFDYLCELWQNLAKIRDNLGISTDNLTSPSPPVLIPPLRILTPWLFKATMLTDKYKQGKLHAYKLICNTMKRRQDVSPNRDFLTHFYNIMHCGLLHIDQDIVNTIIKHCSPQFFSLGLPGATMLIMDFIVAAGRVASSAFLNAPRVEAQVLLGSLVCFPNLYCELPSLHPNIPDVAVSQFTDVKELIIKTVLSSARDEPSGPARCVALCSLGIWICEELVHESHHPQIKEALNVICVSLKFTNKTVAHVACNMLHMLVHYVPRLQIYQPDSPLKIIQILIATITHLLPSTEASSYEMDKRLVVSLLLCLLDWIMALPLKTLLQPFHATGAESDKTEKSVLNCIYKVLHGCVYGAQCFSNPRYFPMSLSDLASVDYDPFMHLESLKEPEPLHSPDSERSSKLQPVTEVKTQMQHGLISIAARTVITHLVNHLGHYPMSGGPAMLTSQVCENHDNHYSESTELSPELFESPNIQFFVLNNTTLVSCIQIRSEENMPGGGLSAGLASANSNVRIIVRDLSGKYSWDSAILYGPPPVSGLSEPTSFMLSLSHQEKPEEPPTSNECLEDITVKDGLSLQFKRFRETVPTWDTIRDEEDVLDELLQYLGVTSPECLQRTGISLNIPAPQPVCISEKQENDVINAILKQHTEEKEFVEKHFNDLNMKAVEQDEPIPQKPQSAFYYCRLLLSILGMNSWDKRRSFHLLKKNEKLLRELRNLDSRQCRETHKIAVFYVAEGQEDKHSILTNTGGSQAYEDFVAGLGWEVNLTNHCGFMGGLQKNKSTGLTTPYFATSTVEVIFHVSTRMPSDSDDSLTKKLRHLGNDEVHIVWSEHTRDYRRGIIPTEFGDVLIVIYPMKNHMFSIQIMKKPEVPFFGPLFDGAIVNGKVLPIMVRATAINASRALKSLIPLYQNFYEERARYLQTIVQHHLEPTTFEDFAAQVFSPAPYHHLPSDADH
UniProt Q6IBS0: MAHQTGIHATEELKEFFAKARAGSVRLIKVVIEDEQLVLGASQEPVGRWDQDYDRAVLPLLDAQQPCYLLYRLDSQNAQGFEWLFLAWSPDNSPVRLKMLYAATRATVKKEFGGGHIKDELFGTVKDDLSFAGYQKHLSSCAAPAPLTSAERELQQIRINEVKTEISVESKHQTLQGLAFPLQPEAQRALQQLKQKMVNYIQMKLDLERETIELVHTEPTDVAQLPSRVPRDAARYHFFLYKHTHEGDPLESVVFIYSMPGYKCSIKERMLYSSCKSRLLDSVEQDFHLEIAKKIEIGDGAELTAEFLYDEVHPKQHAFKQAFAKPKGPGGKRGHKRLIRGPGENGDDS

± gives the standard deviation of the averaged measurements. Only a part is listed here, and it is no random draw.

Compound in this assay: Nc1ncnc2c1ncn2[C@@H]1O[C@H](COP(=O)(O)OP(=O)(O)OP(=O)(O)O)[C@@H](O)[C@H]1O [adenosine triphosphate]
The assay is described as follows: NP40-soluble protein abundance relative to vehicle (solubility fold change) (ratio); higher = more soluble protein in presence of ATP. An outline of the steps:
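Each value is a fold change relative to the detergent-processed vehicle, calculated per replicate from vsn-normalised intensities. Jurkat crude lysate received eight concentrations (0.1 to 10 mM) for 10 min at room temperature and 3 min at 37 °C, then was solubilised in 0.8% NP40 with benzonase (60 min, 4 °C). The ultracentrifuged supernatant was TMT-labelled and run by LC-MS/MS in three independent experiments.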

As to UniProt Q58EX7 and related entries, the NP40-soluble protein abundance reads like this: (concentration: 1mM) 1.08 ± 0.022; (concentration: 2mM) 1.03 ± 0.013; (concentration: 4mM) 1.13 ± 0.12; (concentration: 6mM) 0.989 ± 0.099; (concentration: 8mM) 1.11 ± 0.1; (concentration: 10mM) 1.02 ± 0.093.

Take SIGIRR (UniProt Q6IA17): the NP40-soluble protein abundance is 0.972 ± 0.099 (concentration: 1mM); 1.06 ± 0.089 (concentration: 2mM); 0.98 ± 0.022 (concentration: 4mM); 0.9643 ± 0.0095 (concentration: 6mM); 0.946 ± 0.032 (concentration: 8mM); 0.949 ± 0.025 (concentration: 10mM).

On to UniProt Q6P1N0 and related entries, for which the NP40-soluble protein abundance by setting is: (concentration: 1mM) 0.984 ± 0.019; (concentration: 2mM) 0.981 ± 0.023; (concentration: 4mM) 0.978 ± 0.014; (concentration: 6mM) 1.013 ± 0.0088; (concentration: 8mM) 0.976 ± 0.021; (concentration: 10mM) 0.9799 ± 0.0089.

UniProt Q6N069: the NP40-soluble protein abundance (concentration: 1mM) was 1.09 ± 0.18; the NP40-soluble protein abundance (concentration: 2mM) is 1.06 ± 0.1; the NP40-soluble protein abundance (concentration: 4mM) was 1.09 ± 0.1; the NP40-soluble protein abundance (concentration: 6mM) amounted to 1.02 ± 0.15; the NP40-soluble protein abundance (concentration: 8mM) was 1.12 ± 0.1; the NP40-soluble protein abundance (concentration: 10mM) was 1.09 ± 0.075.

For TBC1D10B (UniProt Q4KMP7), the NP40-soluble protein abundance is, setting by setting: (concentration: 1mM) 1.02 ± 0.04; (concentration: 2mM) 1.02 ± 0.062; (concentration: 4mM) 1.04 ± 0.041; (concentration: 6mM) 1.04 ± 0.076; (concentration: 8mM) 0.997 ± 0.049; (concentration: 10mM) 1.04 ± 0.018.

Regarding RIF1 (UniProt Q5UIP0), the NP40-soluble protein abundance is, setting by setting: (concentration: 1mM) 1.04 ± 0.048; (concentration: 2mM) 1.07 ± 0.04; (concentration: 4mM) 1.06 ± 0.035; (concentration: 6mM) 1.14 ± 0.087; (concentration: 8mM) 1.09 ± 0.025; (concentration: 10mM) 1.15 ± 0.025.

As for UniProt Q5TKA1 and related entries, the NP40-soluble protein abundance runs as follows: (concentration: 1mM) 1 ± 0.033; (concentration: 2mM) 1.04 ± 0.051; (concentration: 4mM) 1.03 ± 0.051; (concentration: 6mM) 1.07 ± 0.057; (concentration: 8mM) 1.06 ± 0.039; (concentration: 10mM) 1.09 ± 0.039.

For UniProt Q5JPI3 and related entries, the NP40-soluble protein abundance (concentration: 1mM) amounted to 0.929 ± 0.15; the NP40-soluble protein abundance (concentration: 2mM) was found to be 0.867 ± 0.12; the NP40-soluble protein abundance (concentration: 4mM) stood at 0.959 ± 0.13; the NP40-soluble protein abundance (concentration: 6mM) was found to be 0.936 ± 0.1; the NP40-soluble protein abundance (concentration: 8mM) was determined as 0.964 ± 0.12; the NP40-soluble protein abundance (concentration: 10mM) stood at 0.987 ± 0.13.

For the target UniProt Q6P499, the NP40-soluble protein abundance is, setting by setting: (concentration: 1mM) 0.934 ± 0.028; (concentration: 2mM) 0.968 ± 0.049; (concentration: 4mM) 0.911 ± 0.034; (concentration: 6mM) 0.947 ± 0.014; (concentration: 8mM) 0.9003 ± 0.0041; (concentration: 10mM) 0.915 ± 0.064.

On to RAB12 (UniProt Q6IQ22), for which the NP40-soluble protein abundance reads like this: (concentration: 1mM) 0.961 ± 0.029; (concentration: 2mM) 0.997 ± 0.058; (concentration: 4mM) 1.03 ± 0.047; (concentration: 6mM) 0.945 ± 0.071; (concentration: 8mM) 0.982 ± 0.073; (concentration: 10mM) 1.01 ± 0.024.

CEP55 (UniProt Q53EZ4): the NP40-soluble protein abundance was 1.03 ± 0.086 (concentration: 1mM); 1.02 ± 0.067 (concentration: 2mM); 1.04 ± 0.088 (concentration: 4mM); 1.11 ± 0.039 (concentration: 6mM); 1.11 ± 0.053 (concentration: 8mM); 1.1 ± 0.057 (concentration: 10mM).

With UniProt Q6GQQ9 and related entries, the NP40-soluble protein abundance runs as follows: (concentration: 1mM) 1.08 ± 0.041; (concentration: 2mM) 1.08 ± 0.056; (concentration: 4mM) 1.01 ± 0.072; (concentration: 6mM) 1.08 ± 0.055; (concentration: 8mM) 1.03 ± 0.099; (concentration: 10mM) 0.934 ± 0.076.

Consider CIAPIN1 (UniProt Q6FI81), for which the NP40-soluble protein abundance (concentration: 1mM) is 0.955 ± 0.037; the NP40-soluble protein abundance (concentration: 2mM) is 0.933 ± 0.032; the NP40-soluble protein abundance (concentration: 4mM) was 0.922 ± 0.039; the NP40-soluble protein abundance (concentration: 6mM) is 0.947 ± 0.038; the NP40-soluble protein abundance (concentration: 8mM) turned out to be 0.905 ± 0.033; the NP40-soluble protein abundance (concentration: 10mM) is 0.905 ± 0.018.

For UniProt Q6GYQ0 and related entries, the NP40-soluble protein abundance (concentration: 1mM) amounted to 0.966 ± 0.047; the NP40-soluble protein abundance (concentration: 2mM) stood at 0.944 ± 0.026; the NP40-soluble protein abundance (concentration: 4mM) amounted to 0.926 ± 0.039; the NP40-soluble protein abundance (concentration: 6mM) came out at 0.95 ± 0.047; the NP40-soluble protein abundance (concentration: 8mM) worked out at 0.954 ± 0.05; the NP40-soluble protein abundance (concentration: 10mM) turned out to be 0.945 ± 0.028.

For TWF2 (UniProt Q6IBS0), the NP40-soluble protein abundance is, setting by setting: (concentration: 1mM) 1.02 ± 0.11; (concentration: 2mM) 0.992 ± 0.055; (concentration: 4mM) 0.95 ± 0.031; (concentration: 6mM) 0.927 ± 0.075; (concentration: 8mM) 0.978 ± 0.038; (concentration: 10mM) 0.969 ± 0.039.
